PubChem BioAssay AID1259308 – NCATS – 2017
In all, the deposit lists about 59,000 reagents; this is a random part of them. Of all reagents, about 1,510 (2.6%) got an active call. 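Calls use total luciferase alone and ignore viability, so some active siRNAs may act by altering cell number.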 The numbers tell different reagents against one gene apart.

Test: 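Candidate targets for better recombinant protein yield in mammalian cells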 (primary screen)
System: human HEK293 embryonic kidney cells stably expressing firefly luciferase (HEK-CMV-Luc2-Hygro)
Reagent: single siRNA against human genes, 0.8 pmol siRNA per well
Duration: 72 h
Read-out: 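Luciferase light (ONE-Glo) measured on one replicate plate set and viability (CellTiter-Glo) on the other, scaled to a negative control siRNA, with robust z-scores and luciferase per cell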
Reading the numbers: total luciferase, z-score and total luciferase, % of control: higher = more reporter protein produced; luciferase per cell, z-score: higher = more reporter output per viable cell; viable cells, % of control: higher = more viable cells
Call rule: 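Active when the median/MAD z-score for overall luciferase is greater than 3; a gene was taken forward for validation with new siRNAs if at least two of its three siRNAs passed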
Meaning of the calls: active = raised luciferase; inactive = no rise

no.	gene symbol	reagent	total luciferase, z-score	total luciferase, % of control	luciferase per cell, z-score	viable cells, % of control	Outcome
1	KIR2DL4	1	-0.182	78.3	-0.184	91.8	inactive
2	KIR2DL4	2	0.0866	83.6	-0.211	98.8	inactive
3	KIR2DL4	3	-0.219	77.5	0.167	82.9	inactive
4	GATA1	1	3.38	149	2.22	92.9	active
5	GATA1	2	-1.23	57.5	-0.337	70.2	inactive
6	GATA1	3	-0.117	79.6	0.655	74.8	inactive
7	ZNF419	1	1.29	108	1.03	91.6	inactive
8	ZNF419	2	-0.388	74.2	0.01	82.7	inactive
9	ZNF419	3	-0.166	78.6	0.123	85	inactive
10	HNRNPA0	1	-0.251	76.9	-0.621	101	inactive
11	HNRNPA0	2	-1.1	60	-1.2	92	inactive
12	HNRNPA0	3	0.374	89.3	-0.329	109	inactive
13	JAM3	1	1.55	113	2.61	63.2	inactive
14	JAM3	2	-0.831	65.4	-1.18	99.6	inactive
15	JAM3	3	-1.68	48.5	-1.12	72.8	inactive
16	SPATS1	1	-0.183	78.2	1.05	66.3	inactive
17	SPATS1	2	0.0106	82.1	-0.17	95.9	inactive
18	SPATS1	3	-0.012	81.6	-0.0602	92.7	inactive
19	UBASH3B	1	1.76	117	1.02	99.9	inactive
20	UBASH3B	2	2.32	128	1.88	87.1	inactive
21	UBASH3B	3	0.0461	82.8	-0.613	109	inactive
22	TRIM59	1	3.46	151	2.03	98.6	active
23	TRIM59	2	1.27	107	0.575	103	inactive
24	TRIM59	3	-0.765	66.7	-1.02	97.5	inactive
25	MTERF1	1	0.327	88.4	0.151	94.9	inactive
26	MTERF1	2	-1.35	55.1	-1.53	92	inactive
27	MTERF1	3	0.422	90.3	0.256	94.3	inactive
28	PC	1	0.559	93	1.24	74.9	inactive
29	PC	2	1.14	105	1.57	77.3	inactive
30	PC	3	-0.199	77.9	-0.0144	87.4	inactive
31	TCEANC2	1	-1.41	53.9	0.303	55.6	inactive
32	TCEANC2	2	0.976	101	1.76	71.2	inactive
33	TCEANC2	3	0.285	87.6	1.75	61.8	inactive
34	CARNS1	1	2.11	124	1.74	87.4	inactive
35	CARNS1	2	-0.37	74.5	-0.574	96.9	inactive
36	CARNS1	3	0.0699	83.3	-0.29	100	inactive
37	PTS	1	-0.896	64.1	-0.431	80.2	inactive
38	PTS	2	-1.47	52.7	-2.22	106	inactive
39	PTS	3	-0.61	69.8	-0.335	85.1	inactive
40	ZNF525	1	0.864	99.1	1.07	83.5	inactive
41	ZNF525	2	4.37	169	2.51	97.4	active
42	ZNF525	3	0.358	89	0.304	91.8	inactive
43	PSPC1	1	0.951	101	1.5	75.9	inactive
44	PSPC1	2	1.94	120	1.52	90.1	inactive
45	PSPC1	3	-0.256	76.8	-0.71	103	inactive
46	TMEM72	1	0.545	92.7	0.426	92.6	inactive
47	TMEM72	2	0.0477	82.8	0.621	78.6	inactive
48	TMEM72	3	-2.51	31.9	0.515	31.1	inactive
49	RNF114	1	-0.572	70.5	-0.56	91.3	inactive
50	RNF114	2	-0.553	70.9	-0.917	101	inactive
51	RNF114	3	-0.485	72.2	0.51	70.6	inactive
52	TIMELESS	1	-2.74	27.3	-2	51.6	inactive
53	TIMELESS	2	-0.572	70.5	0.00884	78.6	inactive
54	TIMELESS	3	-0.512	71.7	-1.05	106	inactive
55	SMC1A	1	0.998	102	0.57	97.9	inactive
56	SMC1A	2	0.759	97	0.785	88.1	inactive
57	SMC1A	3	-1.47	52.6	-2.16	104	inactive

Single entries from above.
For “viable cells, % of control”, PTS #1 reads 80.2
For “total luciferase, % of control”, KIR2DL4 #1 is entered as 78.3
Under “Outcome”, RNF114 #3 reads inactive
Value of SPATS1 #1 under “luciferase per cell, z-score”: 1.05
Result for TIMELESS #3 under “total luciferase, % of control”: 71.7
TRIM59 #3, total luciferase, z-score = -0.765
